PMC4924727
These are yes or no findings as the source states them, for the method shown. In cells and extracts the contact can be indirect. Some entries that bind do so weakly or less than the wild type. Sequences can lack the tags named with a protein.

Sequences of proteins named here, by UniProt entry; tags and fusion partners are left off.
UniProt Q99K46: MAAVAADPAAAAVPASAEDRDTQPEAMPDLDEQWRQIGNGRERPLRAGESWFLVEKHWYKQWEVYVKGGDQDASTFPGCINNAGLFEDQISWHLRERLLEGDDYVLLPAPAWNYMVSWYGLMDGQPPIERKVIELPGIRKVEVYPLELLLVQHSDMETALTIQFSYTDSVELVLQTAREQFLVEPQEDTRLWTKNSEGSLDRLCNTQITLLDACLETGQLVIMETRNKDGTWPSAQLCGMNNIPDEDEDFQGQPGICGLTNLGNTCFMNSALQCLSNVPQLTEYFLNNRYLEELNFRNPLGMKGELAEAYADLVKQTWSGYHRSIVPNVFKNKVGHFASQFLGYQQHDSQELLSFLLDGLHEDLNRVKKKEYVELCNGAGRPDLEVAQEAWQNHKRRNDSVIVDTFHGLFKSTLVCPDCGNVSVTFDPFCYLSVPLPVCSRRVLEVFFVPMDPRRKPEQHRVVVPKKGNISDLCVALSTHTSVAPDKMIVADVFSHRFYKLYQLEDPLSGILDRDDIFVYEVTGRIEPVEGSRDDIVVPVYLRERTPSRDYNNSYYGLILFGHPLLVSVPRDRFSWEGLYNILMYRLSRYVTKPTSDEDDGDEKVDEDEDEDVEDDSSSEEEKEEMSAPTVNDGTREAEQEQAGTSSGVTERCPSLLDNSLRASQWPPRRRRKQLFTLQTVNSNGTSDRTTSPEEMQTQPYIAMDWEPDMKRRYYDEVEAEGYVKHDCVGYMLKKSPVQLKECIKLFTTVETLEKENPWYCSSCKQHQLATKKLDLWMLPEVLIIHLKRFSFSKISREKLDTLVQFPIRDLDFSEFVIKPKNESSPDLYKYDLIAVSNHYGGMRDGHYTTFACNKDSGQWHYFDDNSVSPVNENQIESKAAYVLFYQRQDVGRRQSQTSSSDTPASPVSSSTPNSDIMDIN

Assays:
[1] = molecular target: T1, Myc-tagged Mgl-1 (full length) (mouse) (UniProt Q80Y17); test: co-IP; Myc-tagged Mgl-1 (or its five deletion fragments) and Flag-tagged USP11 co-transfected into HEK293T cells; lysed after 48 hrs; immunoprecipitation with anti-Myc or anti-Flag antibody, immunoblotting
T1 sequence: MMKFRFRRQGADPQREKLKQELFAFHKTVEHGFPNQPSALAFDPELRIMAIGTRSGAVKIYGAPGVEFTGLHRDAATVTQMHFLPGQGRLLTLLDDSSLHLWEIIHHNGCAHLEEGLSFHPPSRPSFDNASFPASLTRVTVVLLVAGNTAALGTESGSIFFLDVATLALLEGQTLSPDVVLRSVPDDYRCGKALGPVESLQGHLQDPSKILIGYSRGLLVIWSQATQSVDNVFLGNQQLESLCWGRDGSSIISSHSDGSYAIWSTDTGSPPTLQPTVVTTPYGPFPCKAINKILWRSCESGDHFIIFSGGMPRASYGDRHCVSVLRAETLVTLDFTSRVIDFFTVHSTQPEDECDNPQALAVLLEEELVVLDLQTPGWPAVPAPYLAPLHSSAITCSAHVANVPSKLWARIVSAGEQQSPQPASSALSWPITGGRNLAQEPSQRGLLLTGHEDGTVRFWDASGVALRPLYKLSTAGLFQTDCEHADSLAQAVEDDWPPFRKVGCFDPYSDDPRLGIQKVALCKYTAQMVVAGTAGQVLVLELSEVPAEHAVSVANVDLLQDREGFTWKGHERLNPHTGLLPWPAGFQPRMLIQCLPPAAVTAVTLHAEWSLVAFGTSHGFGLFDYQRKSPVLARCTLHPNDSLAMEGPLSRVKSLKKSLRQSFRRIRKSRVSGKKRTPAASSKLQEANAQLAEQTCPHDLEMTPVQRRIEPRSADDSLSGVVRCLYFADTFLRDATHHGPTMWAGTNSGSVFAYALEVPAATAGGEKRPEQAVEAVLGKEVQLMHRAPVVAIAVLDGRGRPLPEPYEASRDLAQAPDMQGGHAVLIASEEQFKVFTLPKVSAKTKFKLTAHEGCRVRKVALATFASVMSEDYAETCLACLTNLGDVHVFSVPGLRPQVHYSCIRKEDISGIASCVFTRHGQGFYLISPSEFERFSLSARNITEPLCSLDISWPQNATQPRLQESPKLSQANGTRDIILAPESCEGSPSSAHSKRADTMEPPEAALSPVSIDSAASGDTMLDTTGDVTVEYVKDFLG

[2] = molecular target: T2, Myc-tagged Mgl-1 fragment 1-565 (mouse) (UniProt Q80Y17); test: as above
T2 sequence: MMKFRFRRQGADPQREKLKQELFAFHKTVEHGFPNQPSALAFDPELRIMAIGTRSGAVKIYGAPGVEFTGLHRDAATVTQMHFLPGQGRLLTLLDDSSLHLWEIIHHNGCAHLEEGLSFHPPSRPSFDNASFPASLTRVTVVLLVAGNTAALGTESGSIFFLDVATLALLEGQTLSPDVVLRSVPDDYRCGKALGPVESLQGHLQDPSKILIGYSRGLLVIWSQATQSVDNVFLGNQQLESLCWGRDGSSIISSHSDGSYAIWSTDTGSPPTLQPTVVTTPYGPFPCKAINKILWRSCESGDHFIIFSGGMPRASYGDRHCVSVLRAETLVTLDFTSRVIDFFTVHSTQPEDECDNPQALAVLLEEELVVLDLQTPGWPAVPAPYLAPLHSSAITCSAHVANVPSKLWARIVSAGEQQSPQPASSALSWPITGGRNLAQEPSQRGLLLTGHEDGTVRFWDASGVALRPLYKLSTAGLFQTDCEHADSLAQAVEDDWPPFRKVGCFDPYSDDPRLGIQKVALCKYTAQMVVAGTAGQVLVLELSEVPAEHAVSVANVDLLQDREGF

[3] = molecular target: T3, Myc-tagged Mgl-1 fragment 1-680 (mouse) (UniProt Q80Y17); test: as above
T3 sequence: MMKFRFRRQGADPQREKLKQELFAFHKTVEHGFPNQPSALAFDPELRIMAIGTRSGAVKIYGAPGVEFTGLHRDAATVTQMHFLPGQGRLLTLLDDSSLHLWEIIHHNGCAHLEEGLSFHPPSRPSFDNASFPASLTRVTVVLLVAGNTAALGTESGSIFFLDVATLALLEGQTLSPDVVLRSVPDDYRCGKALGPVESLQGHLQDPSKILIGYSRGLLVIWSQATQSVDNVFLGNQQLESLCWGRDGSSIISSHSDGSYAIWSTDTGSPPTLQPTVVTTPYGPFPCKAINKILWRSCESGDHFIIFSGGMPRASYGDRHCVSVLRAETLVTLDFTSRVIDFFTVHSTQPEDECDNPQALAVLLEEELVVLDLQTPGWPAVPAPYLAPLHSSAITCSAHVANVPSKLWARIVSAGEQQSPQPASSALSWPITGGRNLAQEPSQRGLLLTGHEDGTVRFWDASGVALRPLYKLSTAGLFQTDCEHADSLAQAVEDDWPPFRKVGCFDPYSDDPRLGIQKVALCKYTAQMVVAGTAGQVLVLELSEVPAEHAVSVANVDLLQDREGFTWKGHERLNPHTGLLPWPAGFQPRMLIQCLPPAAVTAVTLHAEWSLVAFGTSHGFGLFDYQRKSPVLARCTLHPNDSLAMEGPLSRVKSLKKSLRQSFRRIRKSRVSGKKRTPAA

[4] = molecular target: T4, Myc-tagged Mgl-1 fragment 1-934 (mouse) (UniProt Q80Y17); test: as above
T4 sequence: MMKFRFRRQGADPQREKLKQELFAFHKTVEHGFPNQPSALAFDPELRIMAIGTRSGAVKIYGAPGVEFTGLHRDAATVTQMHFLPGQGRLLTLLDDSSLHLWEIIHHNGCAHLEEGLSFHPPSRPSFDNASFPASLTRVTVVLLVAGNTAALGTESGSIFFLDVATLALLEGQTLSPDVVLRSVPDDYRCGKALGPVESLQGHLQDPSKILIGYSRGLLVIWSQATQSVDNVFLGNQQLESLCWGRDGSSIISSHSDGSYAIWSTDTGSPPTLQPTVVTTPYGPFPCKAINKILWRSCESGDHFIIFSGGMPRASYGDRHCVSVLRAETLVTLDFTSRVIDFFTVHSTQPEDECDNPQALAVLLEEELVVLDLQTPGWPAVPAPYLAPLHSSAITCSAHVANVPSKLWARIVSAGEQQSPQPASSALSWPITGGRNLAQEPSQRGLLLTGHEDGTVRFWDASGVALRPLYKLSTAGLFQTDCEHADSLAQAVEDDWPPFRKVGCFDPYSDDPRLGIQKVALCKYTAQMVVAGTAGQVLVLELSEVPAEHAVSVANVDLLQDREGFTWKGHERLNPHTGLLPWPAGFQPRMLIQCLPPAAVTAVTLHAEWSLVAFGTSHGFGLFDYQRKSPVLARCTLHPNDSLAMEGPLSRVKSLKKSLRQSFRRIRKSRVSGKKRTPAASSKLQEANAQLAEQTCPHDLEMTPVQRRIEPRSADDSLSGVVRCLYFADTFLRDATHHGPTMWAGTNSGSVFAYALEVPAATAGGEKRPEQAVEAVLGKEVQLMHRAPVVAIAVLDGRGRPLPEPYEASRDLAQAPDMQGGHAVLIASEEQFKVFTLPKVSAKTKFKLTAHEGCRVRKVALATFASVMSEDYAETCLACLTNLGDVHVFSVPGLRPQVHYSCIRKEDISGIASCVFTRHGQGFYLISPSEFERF

[5] = molecular target: T5, Myc-tagged Mgl-1 fragment 608-1034 (mouse) (UniProt Q80Y17); test: as above
T5 sequence: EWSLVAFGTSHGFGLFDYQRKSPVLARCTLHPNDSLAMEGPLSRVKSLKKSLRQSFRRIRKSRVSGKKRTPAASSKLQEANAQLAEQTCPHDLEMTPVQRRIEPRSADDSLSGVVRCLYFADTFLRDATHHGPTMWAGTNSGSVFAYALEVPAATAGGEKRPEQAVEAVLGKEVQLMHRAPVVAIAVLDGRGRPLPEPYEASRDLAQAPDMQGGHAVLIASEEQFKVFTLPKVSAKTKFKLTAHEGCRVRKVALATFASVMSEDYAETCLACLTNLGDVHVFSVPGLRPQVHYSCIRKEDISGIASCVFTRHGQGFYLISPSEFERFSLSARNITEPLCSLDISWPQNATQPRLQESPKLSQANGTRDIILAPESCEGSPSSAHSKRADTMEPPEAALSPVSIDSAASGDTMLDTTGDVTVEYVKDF

[6] = molecular target: T6, GST-Mgl-1 fusion protein (mouse) (UniProt Q80Y17); test: pull-down; GST-Mgl-1 or GST immobilised on Glutathione-Sepharose beads, incubated with extract of HEK293T cells transfected with Flag-USP11; buffer A (20 mM Tris-HCl, 1 mM EDTA, 1 mM dithiothreitol, 150 mM NaCl, 1% Triton X-100); blot with anti-USP11; only the target purified
T6 sequence: T1 sequence

binding [1]: binds
binding [2]: binds
binding [3]: binds
binding [4]: binds
binding [5]: binds
binding [6]: binds
Substance: Flag-tagged USP11 (ubiquitin-specific protease 11) (from UniProt Q99K46 1-921) (enzyme)
